Measured values taken from article PMC4150532.
Results are given in words; binding and its absence hold for the method and conditions named. Binding seen in cells or lysates may run through a third protein. A result given as binding can be weak or reduced; the word gives no strength. Where a sequence is shown, tags or fusion partners need not be part of it. Values belong to the molecule of their own block, whether it stands above or below them.

Legend:
[1] = target: Elp1–KR9A–GFP (GFP-tagged Elp1 basic region mutant, nine basic residues to alanine) (S. cerevisiae) (UniProt Q06706); assay: co-IP; GFP–Trap beads precipitate genomic GFP-tagged Elp1 from lysate of yeast that also carry a plasmid copy of 6HA-tagged Elp1; anti-HA blot; done in strains with ELP5 and repeated in elp5Δ strains; 150 mM NaCl, 4°C
[2] = target: T1, Elp1–GFP (GFP-tagged wild-type Elp1, largest subunit of the Elongator complex) (S. cerevisiae) (UniProt Q06706); assay: as above
T1 sequence: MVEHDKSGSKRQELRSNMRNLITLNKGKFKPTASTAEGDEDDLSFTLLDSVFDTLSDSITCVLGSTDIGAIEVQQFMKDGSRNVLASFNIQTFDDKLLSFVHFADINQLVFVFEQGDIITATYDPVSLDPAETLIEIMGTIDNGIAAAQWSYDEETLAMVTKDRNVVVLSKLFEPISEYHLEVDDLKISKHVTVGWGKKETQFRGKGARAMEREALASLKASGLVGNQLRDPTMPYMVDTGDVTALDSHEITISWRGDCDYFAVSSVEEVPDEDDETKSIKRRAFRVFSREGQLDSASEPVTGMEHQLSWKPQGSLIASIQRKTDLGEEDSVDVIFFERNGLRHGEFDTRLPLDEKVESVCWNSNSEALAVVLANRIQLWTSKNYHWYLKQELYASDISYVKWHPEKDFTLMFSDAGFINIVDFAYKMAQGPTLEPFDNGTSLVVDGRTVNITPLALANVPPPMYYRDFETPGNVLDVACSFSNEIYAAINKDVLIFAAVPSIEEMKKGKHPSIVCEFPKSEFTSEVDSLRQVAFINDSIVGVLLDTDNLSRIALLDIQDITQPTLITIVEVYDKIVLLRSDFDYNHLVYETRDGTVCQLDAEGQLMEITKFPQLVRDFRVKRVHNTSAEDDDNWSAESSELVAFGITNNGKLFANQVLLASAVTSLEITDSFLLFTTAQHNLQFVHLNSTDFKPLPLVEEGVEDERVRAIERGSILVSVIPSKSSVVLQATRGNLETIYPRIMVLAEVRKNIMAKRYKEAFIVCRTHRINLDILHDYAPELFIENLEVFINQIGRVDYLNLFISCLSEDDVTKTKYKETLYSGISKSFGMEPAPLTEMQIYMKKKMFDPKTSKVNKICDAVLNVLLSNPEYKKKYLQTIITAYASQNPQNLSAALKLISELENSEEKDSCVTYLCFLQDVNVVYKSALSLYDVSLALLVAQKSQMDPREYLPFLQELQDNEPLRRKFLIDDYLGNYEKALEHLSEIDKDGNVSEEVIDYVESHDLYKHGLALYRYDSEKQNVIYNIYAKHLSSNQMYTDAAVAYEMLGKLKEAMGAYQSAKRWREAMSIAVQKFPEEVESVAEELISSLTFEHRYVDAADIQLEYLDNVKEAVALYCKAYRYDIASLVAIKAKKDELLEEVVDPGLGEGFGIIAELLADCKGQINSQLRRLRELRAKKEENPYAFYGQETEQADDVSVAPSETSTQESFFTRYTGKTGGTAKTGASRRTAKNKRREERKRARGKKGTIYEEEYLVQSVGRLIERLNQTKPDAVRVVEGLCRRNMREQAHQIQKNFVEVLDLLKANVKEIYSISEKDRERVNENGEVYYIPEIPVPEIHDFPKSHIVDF

[3] = target: Elp1–KR9A–GFP (GFP-tagged Elp1 basic region mutant, nine basic residues to alanine) (S. cerevisiae) (UniProt Q06706); assay: co-IP; GFP–Trap beads precipitate the GFP-tagged protein from yeast lysate; HA-tagged partners found by anti-HA blot and measured by densitometry; lysis buffer 50 mM HEPES-KOH pH 7.5, 150 mM NaCl, 2 mM MgCl2, 0.1% Triton X-100; 4°C

binding [1]: binds
binding [2]: binds
Molecule: Elp1–KR9A–6HA (6HA-tagged Elp1 basic region mutant from YCplac111–elp1–KR9A–6HA) (from UniProt Q06706)

binding [3]: binds
B1: Elp3-3HA (HA-tagged Elp3 subunit of Elongator) (protein, UniProt Q02908 1-557)
chain: MARHGKGPKTNKKKLAPEKERFIQCCADITLELTDSLTSGTTREINLNGLITKYSKKYKLKQQPRLTDIINSIPDQYKKYLLPKLKAKPVRTASGIAVVAVMCKPHRCPHIAYTGNICVYCPGGPDSDFEYSTQSYTGYEPTSMRAIRARYDPYEQARGRVEQLKQLGHSIDKVEYVLMGGTFMSLPKEYREDFIVKLHNALSGFNGNDIDEAILYSQQSLTKCVGITIETRPDYCTQTHLDDMLKYGCTRLEIGVQSLYEDVARDTNRGHTVRSVCETFAVSKDAGYKVVSHMMPDLPNVGMERDIEQFKEYFENPDFRTDGLKIYPTLVIRGTGLYELWKTGRYKSYSANALVDLVARILALVPPWTRIYRVQRDIPMPLVTSGVDNGNLRELALARMKDLGTTCRDVRTREVGIQEVHHKVQPDQVELIRRDYYANGGWETFLSYEDPKKDILIGLLRLRKASKKYTYRKEFTSQRTSIVRELHVYGSVVPLHSRDPRKFQHQGFGTLLMEEAERIAKEEHGSEKISVISGVGVRNYYGKLGYELDGPYMSKRI

binding [1]: binds
B2: Elp1–6HA (6HA-tagged wild-type Elp1 from YCplac111–ELP1–6HA) (protein, UniProt Q06706 1-1349)
chain: T1 sequence
